Source: the supplement of paper PMC7752906
Where a name gives a salt, the structure may show the parent alone. Some of the results follow. Single values are uncertain here, since repeats match poorly.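 Test system: Schistosoma mansoni schistosomula, roughly 40 per well, imaged in bright field over time and compared with wells given 0.1% DMSO. Distance read-out: the paper calls a drug a hit when its Mahalanobis distance is at least 2.47, three standard deviations above the DMSO control mean. Degeneracy is the share of worms classified opaque.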

Tested on: Schistosoma mansoni schistosomula
Assay: degeneracy (percent of somules classified as degenerate/opaque); higher = more parasite degeneration/death; extreme values may be limits of the assay
Details: 10 µM; 72 h

Row | SMILES | degeneracy [%]
1 | COc1ccc(-n2nc(CCC(=O)N(C)O)cc2-c2ccc(Cl)cc2)cc1 [Tepoxalin] | 5.88
2 | O=P(O)(O)C(O)(Cc1cccnc1)P(=O)(O)O [Risedronate Sodium] | 3.7
3 | O=C(O)c1cc(O)c(O)c(O)c1 [Gallic Acid] | 18.2
4 | CCN(CC)C(=O)N1CCN(C)CC1 [Diethylcarbamazine] | 10.3
5 | CC[C@]1(O)C[C@@H]2CN(CCc3c([nH]c4ccccc34)[C@@](C(=O)OC)(c3cc4c(cc3OC)N(C)[C@H]3[C@@](O)(C(=O)OC)[C@H](OC(C)=O)[C@]5(CC)C=CCN6CC[C@]43[C@@H]65)C2)C1 [Vinblastine Sulfate] | 47.6
6 | CC(=O)[C@H]1CC[C@H]2[C@@H]3CC=C4C[C@@H](OC(=O)CCC(=O)O)CC[C@]4(C)[C@H]3CC[C@]12C [Pregnenolone Succinate] | 10
7 | CCN(CCCc1ccccc1)CCCc1ccccc1 [Alverine Citrate] | 16.7
8 | Clc1ccccc1C(c1ccccc1)(c1ccccc1)n1ccnc1 [Clotrimazole] | 100
9 | CO/N=C1\CN(c2nc3c(cc2F)c(=O)c(C(=O)O)cn3C2CC2)CC1CN (centres undefined) [Gemifloxacin Mesylate] | 2.33
10 | Cc1cc(CC(C)CC(C)(C)C)n(O)c(=O)c1 (centres undefined) [Piroctone Olamine] | 100
11 | O=S(=O)(O)CCSSCCS(=O)(=O)O [Dimesna] | 9.68
12 | O=C(O)CCc1nc2ccccc2[nH]1 [Procodazole] | 0
13 | NC(=O)c1cccnc1 [Niacinamide] | 5.71
14 | Nc1nccs1 [Aminothiazole] | 6.98
15 | Cn1c(=O)c2c(ncn2CC(O)CO)n(C)c1=O (centres undefined) [Dyphylline] | 3.85
16 | CCCc1nc(C(C)(C)O)c(C(=O)OCc2oc(=O)oc2C)n1Cc1ccc(-c2ccccc2-c2nnn[nH]2)cc1 [Olmesartan Medoxomil] | 10.7
17 | NC(=O)C1(N2CCCCC2)CCN(CCCC(=O)c2ccc(F)cc2)CC1 [Pipamperone] | 3.45
18 | CC1=C(C(=O)O)N2C(=O)[C@@H](NC(=O)[C@H](N)c3ccc(O)cc3)[C@H]2SC1 [Cefadroxil] | 11.4
19 | CC(C)(Oc1ccc(C2CC2(Cl)Cl)cc1)C(=O)O (centres undefined) [Ciprofibrate] | 2.38
20 | O=C(O)[C@@H](S)[C@@H](S)C(=O)O [Succimer] | 0
21 | CCN1CCC[C@H]1CNC(=O)c1cc(S(N)(=O)=O)ccc1OC [Levosulpiride] | 7.14
22 | Nc1ccc(S(N)(=O)=O)cc1 [Sulfanilamide] | 2.86
23 | CC(CCc1ccc(O)cc1)NCCc1ccc(O)c(O)c1 (centres undefined) [Dobutamine] | 9.09
24 | CCC(C)(C)c1ccc(CC(C)CN2C[C@@H](C)O[C@@H](C)C2)cc1 (some centres undefined) [Amorolfine] | 8.57
25 | CC[C@]12CCCN3CCc4c(n(c5ccccc45)[C@@](O)(C(=O)OC)C1)[C@@H]32 [Vincamine] | 14.8

Row | SMILES | degeneracy [%]
26 | S=P(N1CC1)(N1CC1)N1CC1 [Thiotepa] | 3.12
27 | Nc1nc(N)nc(-c2cc(Cl)ccc2Cl)n1 [Irsogladine Maleate] | 10.8
28 | CCN1CCCC1CNC(=O)c1cc(S(=O)(=O)CC)c(N)cc1OC (centres undefined) [Amisulpride] | 3.7
29 | CC1CCc2cc(F)cc3c(=O)c(C(=O)O)cn1c23 (centres undefined) [Flumequine] | 9.52
30 | CC(C)[C@H]1CC[C@H](C(=O)N[C@H](Cc2ccccc2)C(=O)O)CC1 [Nateglinide] | 0
31 | CC(=O)Oc1cccc(C(=O)O)c1OC(C)=O [Dipyrocetyl] | 3.23
32 | CC(C)c1nc(CN(C)C(=O)N[C@H](C(=O)N[C@@H](Cc2ccccc2)C[C@H](O)[C@H](Cc2ccccc2)NC(=O)OCc2cncs2)C(C)C)cs1 [Ritonavir] | 26.3
33 | CCn1cc(C(=O)O)c(=O)c2cc(F)c(N3CCNCC3)cc21 [Norfloxacin] | 3.03
34 | CCOC(=O)C1=C(C)NC(C)=C(C(=O)OC)C1c1cccc([N+](=O)[O-])c1 (centres undefined) [Nitrendipine] | 2.5
35 | O=C(c1ccc(OCCN2CCCCC2)cc1)c1c(-c2ccc(O)cc2)sc2cc(O)ccc12 [Raloxifene] | 100
36 | CCC(=O)NCC[C@@H]1CCc2ccc3c(c21)CCO3 [Ramelteon] | 2.38
37 | CN(C)CCC(c1ccc(Cl)cc1)c1ccccn1 (centres undefined) [Chlorpheniramine] | 3.57
38 | COc1cc(N)c(Cl)cc1C(=O)NC1CCN(CCCOc2ccc(F)cc2)CC1OC (centres undefined) [Cisapride] | 10.7
39 | COc1ccc2cc1Oc1ccc(cc1)C[C@H]1c3c(cc4c(c3Oc3cc5c(cc3OC)CCN(C)[C@@H]5C2)OCO4)CCN1C [cepharanthine] | 100
40 | O=C(O[C@@H]1C[C@@H]2C[C@H]3C[C@H](C1)N2CC3=O)c1c[nH]c2ccccc12 [Dolasetron] | 100
41 | CC(C)(C)NC(=O)[C@@H]1CN(Cc2cccnc2)CCN1C[C@@H](O)C[C@@H](Cc1ccccc1)C(=O)N[C@H]1c2ccccc2C[C@H]1O [Indinavir] | 0
42 | Cc1c(OCC(F)(F)F)ccnc1C[S+]([O-])c1nc2ccccc2[nH]1 (centres undefined) [Lansoprazole] | 0
43 | Cn1c(=O)c2c(ncn2C)n(C)c1=O [Caffeine] | 17.2
44 | NC(=O)c1ccc[n+]([C@@H]2O[C@H](COP(=O)([O-])OP(=O)(O)OC[C@H]3O[C@@H](n4cnc5c(N)ncnc54)[C@H](O)[C@@H]3O)[C@@H](O)[C@H]2O)c1 [Nadide] | 0
45 | NCC(=O)CCC(=O)O [Aminolevulinic Acid Hydrochloride] | 2.56
46 | Cc1cc2c(OCC(CNC(C)(C)C)OC(=O)c3ccccc3)cccc2[nH]1 (centres undefined) [Bopindolol] | 4.17
47 | O=C(O)/C=C/C(=O)O [Fumaric Acid] | 0
48 | O=C(O)C[C@H](O)C[C@H](O)/C=C/c1c(C2CC2)nc2ccccc2c1-c1ccc(F)cc1 [Pitavastatin Calcium] | 78.3
49 | CC1(C)[C@@H](O)CC[C@]2(C)[C@H]3C(=O)C=C4[C@@H]5C[C@@](C)(C(=O)O)CC[C@]5(C)CC[C@@]4(C)[C@]3(C)CC[C@@H]12 [Enoxolone] | 100
50 | COCCOC(=O)C1=C(C)NC(C)=C(C(=O)OC(C)C)C1c1cccc([N+](=O)[O-])c1 (centres undefined) [Nimodipine] | 11.1

Looked up above:
In degeneracy [%], CCN(CC)C(=O)N1CCN(C)CC1 [Diethylcarbamazine] has 10.3
In degeneracy [%], CC(CCc1ccc(O)cc1)NCCc1ccc(O)c(O)c1 (centres undefined) [Dobutamine] has 9.09
In degeneracy [%], O=C(O)c1cc(O)c(O)c(O)c1 [Gallic Acid] has 18.2

Additional results follow.

Row | SMILES | degeneracy [%]
51 | NCCS [Cysteamine Hydrochloride] | 12.5
52 | CN1C(C(=O)Nc2ccccn2)=C(O)c2ccccc2S1(=O)=O [Piroxicam] | 3.33
53 | NS(=O)(=O)Cc1noc2ccccc12 [Zonisamide] | 5.26
54 | CN(C)CCN(Cc1ccc(Cl)cc1)c1ccccn1 [Chloropyramine Hydrochloride] | 39.3
55 | CCCCCCCCCCOc1cc2c(O)c(C(=O)OCC)cnc2cc1OCC [Decoquinate] | 2.38
56 | COc1ccc([C@@H]2Sc3ccccc3N(CCN(C)C)C(=O)[C@@H]2OC(C)=O)cc1 [Diltiazem Hydrochloride] | 8.7
57 | COc1ccc([C@@H]2Sc3ccccc3N(CCN(C)C)C(=O)[C@@H]2OC(C)=O)cc1 [Diltiazem] | 22.2
58 | Cc1cn([C@H]2C[C@H](N=[N+]=[N-])[C@@H](CO)O2)c(=O)[nH]c1=O [Zidovudine [azt]] | 0
59 | O=C(O)CCCC[C@@H]1CCSS1 [Thioctic Acid] | 9.68
60 | CCNC(=O)[C@@H]1CCCN1C(=O)[C@H](CCCNC(=N)N)NC(=O)[C@H](CC(C)C)NC(=O)[C@@H](CC(C)C)NC(=O)[C@H](Cc1ccc(O)cc1)NC(=O)[C@H](CO)NC(=O)[C@H](Cc1c[nH]c2ccccc12)NC(=O)[C@H](Cc1c[nH]cn1)NC(=O)[C@@H]1CCC(=O)N1 [Leuprolide] | 12.1
61 | COc1cc(NS(=O)(=O)c2ccc(N)cc2)nc(OC)n1 [Sulfadimethoxine] | 6.25
62 | CC[N+](CC)(CC(=O)Nc1c(C)cccc1C)Cc1ccccc1 [Denatonium Benzoate] | 12.5
63 | CC1(C)O[C@@H]2[C@@H](CO[C@@]3(COS(N)(=O)=O)OC(C)(C)O[C@@H]23)O1 [Topiramate] | 16.7
64 | CC(C)Cn1cnc2c(N)nc3ccccc3c21 [Imiquimod] | 10.5
65 | CC(=O)OCC(=O)[C@@]1(O)[C@H](OC(C)=O)C[C@H]2[C@@H]3CCC4=CC(=O)C=C[C@]4(C)[C@@]3(F)[C@@H](O)C[C@@]21C [Triamcinolone Diacetate] | 3.45
66 | CCCC(=O)O[C@]1(C(=O)CO)CC[C@H]2[C@@H]3CCC4=CC(=O)CC[C@]4(C)[C@H]3[C@@H](O)C[C@@]21C [Hydrocortisone Butyrate] | 3.57
67 | CC1(C)S[C@@H]2[C@H](NC(=O)COc3ccccc3)C(=O)N2[C@H]1C(=O)O [Penicillin V Potassium] | 4.35
68 | O=c1[nH]c(=O)n([C@H]2C[C@H](O)[C@@H](CO)O2)cc1C(F)(F)F [Trifluridine] | 5
69 | CC(C)NC(=N)NC(=N)Nc1ccc(Cl)cc1 [Proguanil; Chlorguanide Hydrochloride] | 4.35
70 | CN(Cc1ccc(C(C)(C)C)cc1)Cc1cccc2ccccc12 [Butenafine] | 0
71 | CCCCCCCCNC(C)C(O)c1ccc(SC(C)C)cc1 (centres undefined) [suloctidil] | 100
72 | C[C@H]1O[C@@H](O[C@H]2[C@@H](O)C[C@H](O[C@H]3[C@@H](O)C[C@H](O[C@H]4CC[C@@]5(C)[C@H](CC[C@@H]6[C@@H]5CC[C@]5(C)[C@@H](C7=CC(=O)OC7)CC[C@]65O)C4)O[C@@H]3C)O[C@@H]2C)C[C@H](O)[C@@H]1O [digitoxin] | 100
73 | Cc1c(C)c2c(c(C)c1O)CCC(C)(CCCC(C)CCCC(C)CCCC(C)C)O2 (stereo not drawn) [Alpha-tochopherol] | 0
74 | CC(=O)O[C@]1(C(C)=O)CC[C@H]2[C@@H]3C=C(C)C4=CC(=O)CC[C@]4(C)[C@H]3CC[C@@]21C [Megestrol Acetate] | 11.9

Pulled one by one from the list above, 3 records:
Row | SMILES | degeneracy [%]
73 | Cc1c(C)c2c(c(C)c1O)CCC(C)(CCCC(C)CCCC(C)CCCC(C)C)O2 (stereo not drawn) [Alpha-tochopherol] | 0
70 | CN(Cc1ccc(C(C)(C)C)cc1)Cc1cccc2ccccc12 [Butenafine] | 0
61 | COc1cc(NS(=O)(=O)c2ccc(N)cc2)nc(OC)n1 [Sulfadimethoxine] | 6.25
